According to paper PMC4855074:
These are yes or no findings as the source states them, for the method shown. In cells and extracts the contact can be indirect. For some assays here: Where a sequence is shown, tags or fusion partners need not be part of it.

By UniProt entry, the sequences of proteins in these tests, tags left out.
UniProt Q7Z434: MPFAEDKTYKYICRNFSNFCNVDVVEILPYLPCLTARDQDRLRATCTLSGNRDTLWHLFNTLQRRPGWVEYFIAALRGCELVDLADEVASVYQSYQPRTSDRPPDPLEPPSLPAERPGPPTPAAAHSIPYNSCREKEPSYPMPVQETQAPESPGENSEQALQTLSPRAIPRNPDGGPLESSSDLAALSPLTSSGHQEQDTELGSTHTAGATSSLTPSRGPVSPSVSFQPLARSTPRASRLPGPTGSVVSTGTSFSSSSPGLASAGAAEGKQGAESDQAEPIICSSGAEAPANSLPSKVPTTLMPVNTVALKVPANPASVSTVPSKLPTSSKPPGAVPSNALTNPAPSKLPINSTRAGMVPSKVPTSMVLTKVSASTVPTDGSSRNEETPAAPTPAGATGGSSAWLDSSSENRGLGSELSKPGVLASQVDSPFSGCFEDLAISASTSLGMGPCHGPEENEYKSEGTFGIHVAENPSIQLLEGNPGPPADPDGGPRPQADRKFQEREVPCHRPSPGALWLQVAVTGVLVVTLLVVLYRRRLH
UniProt K9N7A1: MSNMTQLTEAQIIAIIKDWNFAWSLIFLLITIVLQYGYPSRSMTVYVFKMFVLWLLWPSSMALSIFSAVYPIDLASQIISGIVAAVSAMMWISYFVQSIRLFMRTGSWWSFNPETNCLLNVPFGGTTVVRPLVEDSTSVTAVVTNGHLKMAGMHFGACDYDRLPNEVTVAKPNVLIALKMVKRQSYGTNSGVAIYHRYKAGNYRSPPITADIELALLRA

Tests used:
[1] = target: FLAG-tagged MAVS (wild type) (UniProt Q7Z434); test: co-IP
[2] = target: T1, FLAG-tagged RIG-I (wild type) (UniProt O95786); test: co-IP
T1 sequence: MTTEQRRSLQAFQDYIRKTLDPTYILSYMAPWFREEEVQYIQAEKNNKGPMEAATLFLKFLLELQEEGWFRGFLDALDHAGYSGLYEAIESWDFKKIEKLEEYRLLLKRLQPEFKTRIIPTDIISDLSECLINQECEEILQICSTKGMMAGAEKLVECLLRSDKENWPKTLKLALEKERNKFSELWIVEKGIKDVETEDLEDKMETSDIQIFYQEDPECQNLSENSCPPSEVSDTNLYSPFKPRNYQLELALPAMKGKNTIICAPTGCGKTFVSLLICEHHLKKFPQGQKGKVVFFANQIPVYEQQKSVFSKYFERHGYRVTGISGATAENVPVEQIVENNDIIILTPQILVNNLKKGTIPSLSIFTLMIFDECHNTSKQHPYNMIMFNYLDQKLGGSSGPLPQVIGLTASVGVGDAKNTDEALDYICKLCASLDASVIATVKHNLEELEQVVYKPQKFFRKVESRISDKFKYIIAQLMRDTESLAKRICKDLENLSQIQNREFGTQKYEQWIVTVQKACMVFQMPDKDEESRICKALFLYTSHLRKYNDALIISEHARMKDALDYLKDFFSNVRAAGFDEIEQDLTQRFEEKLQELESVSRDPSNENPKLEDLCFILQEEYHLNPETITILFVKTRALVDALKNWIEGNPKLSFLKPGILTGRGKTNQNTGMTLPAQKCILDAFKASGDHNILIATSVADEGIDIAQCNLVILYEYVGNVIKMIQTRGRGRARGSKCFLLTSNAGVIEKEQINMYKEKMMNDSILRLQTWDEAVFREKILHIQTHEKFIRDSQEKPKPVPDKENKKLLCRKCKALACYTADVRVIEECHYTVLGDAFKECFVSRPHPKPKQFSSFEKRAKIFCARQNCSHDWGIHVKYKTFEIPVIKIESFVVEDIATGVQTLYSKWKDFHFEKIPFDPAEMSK

“MERS-CoV M protein, V5-tagged (from UniProt K9N7A1 1-219)” was tested, and the binding [1] was “no binding” and the binding [2] was “no binding”.
